Results are given in words; binding and its absence hold for the method and conditions named. Binding seen in cells or lysates may run through a third protein. Some results given as binding are weak or reduced against the parent protein; the word gives no strength. For some of these results: Tags and fused reporters may be left off the sequences shown.
Key:
[1] = biological target: T1, ankyrin-repeat-, SH3-domain- and proline-rich-region-containing protein 2 (ASPP2), FLAG-tagged (UniProt Q8CG79); experiment: co-IP; FLAG immunoprecipitation in a heterologous expression system; FLAG-ASPP2 and HA-MAGI-3 co-expressed with GFP alone; 20 mM Tris-HCl pH 7.5, 150 mM NaCl, 1% Triton X-100
T1 sequence: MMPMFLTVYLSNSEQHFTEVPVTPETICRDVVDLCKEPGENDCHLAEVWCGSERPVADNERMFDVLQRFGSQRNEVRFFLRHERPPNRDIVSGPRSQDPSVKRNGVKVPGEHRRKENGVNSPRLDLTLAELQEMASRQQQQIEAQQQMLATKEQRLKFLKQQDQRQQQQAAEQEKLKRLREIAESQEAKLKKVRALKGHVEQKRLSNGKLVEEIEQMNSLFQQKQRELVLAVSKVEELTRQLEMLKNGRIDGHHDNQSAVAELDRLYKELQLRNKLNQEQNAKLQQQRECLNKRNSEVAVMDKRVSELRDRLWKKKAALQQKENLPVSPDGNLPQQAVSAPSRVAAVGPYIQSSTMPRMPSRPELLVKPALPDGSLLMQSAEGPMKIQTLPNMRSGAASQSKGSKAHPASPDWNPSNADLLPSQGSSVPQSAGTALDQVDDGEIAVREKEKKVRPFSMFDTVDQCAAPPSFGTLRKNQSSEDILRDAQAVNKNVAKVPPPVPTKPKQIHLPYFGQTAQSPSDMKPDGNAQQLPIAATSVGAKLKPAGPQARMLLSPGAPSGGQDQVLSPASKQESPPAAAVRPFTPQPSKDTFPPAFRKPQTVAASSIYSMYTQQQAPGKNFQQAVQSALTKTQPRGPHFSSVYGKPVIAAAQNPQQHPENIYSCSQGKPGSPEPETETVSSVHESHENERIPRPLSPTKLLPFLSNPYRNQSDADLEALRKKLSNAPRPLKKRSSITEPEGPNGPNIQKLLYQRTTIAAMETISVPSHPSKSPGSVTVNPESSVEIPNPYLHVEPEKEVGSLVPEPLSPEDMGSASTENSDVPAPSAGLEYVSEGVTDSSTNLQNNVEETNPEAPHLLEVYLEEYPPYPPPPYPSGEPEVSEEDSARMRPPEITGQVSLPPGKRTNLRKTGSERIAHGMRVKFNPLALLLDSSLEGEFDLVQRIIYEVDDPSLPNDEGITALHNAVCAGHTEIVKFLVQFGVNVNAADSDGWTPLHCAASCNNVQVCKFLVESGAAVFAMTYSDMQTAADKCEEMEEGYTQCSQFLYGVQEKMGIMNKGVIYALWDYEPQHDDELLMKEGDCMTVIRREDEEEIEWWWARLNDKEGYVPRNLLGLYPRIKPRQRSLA

Amino acid sequences for entries named in this document (tags omitted).
UniProt P39447: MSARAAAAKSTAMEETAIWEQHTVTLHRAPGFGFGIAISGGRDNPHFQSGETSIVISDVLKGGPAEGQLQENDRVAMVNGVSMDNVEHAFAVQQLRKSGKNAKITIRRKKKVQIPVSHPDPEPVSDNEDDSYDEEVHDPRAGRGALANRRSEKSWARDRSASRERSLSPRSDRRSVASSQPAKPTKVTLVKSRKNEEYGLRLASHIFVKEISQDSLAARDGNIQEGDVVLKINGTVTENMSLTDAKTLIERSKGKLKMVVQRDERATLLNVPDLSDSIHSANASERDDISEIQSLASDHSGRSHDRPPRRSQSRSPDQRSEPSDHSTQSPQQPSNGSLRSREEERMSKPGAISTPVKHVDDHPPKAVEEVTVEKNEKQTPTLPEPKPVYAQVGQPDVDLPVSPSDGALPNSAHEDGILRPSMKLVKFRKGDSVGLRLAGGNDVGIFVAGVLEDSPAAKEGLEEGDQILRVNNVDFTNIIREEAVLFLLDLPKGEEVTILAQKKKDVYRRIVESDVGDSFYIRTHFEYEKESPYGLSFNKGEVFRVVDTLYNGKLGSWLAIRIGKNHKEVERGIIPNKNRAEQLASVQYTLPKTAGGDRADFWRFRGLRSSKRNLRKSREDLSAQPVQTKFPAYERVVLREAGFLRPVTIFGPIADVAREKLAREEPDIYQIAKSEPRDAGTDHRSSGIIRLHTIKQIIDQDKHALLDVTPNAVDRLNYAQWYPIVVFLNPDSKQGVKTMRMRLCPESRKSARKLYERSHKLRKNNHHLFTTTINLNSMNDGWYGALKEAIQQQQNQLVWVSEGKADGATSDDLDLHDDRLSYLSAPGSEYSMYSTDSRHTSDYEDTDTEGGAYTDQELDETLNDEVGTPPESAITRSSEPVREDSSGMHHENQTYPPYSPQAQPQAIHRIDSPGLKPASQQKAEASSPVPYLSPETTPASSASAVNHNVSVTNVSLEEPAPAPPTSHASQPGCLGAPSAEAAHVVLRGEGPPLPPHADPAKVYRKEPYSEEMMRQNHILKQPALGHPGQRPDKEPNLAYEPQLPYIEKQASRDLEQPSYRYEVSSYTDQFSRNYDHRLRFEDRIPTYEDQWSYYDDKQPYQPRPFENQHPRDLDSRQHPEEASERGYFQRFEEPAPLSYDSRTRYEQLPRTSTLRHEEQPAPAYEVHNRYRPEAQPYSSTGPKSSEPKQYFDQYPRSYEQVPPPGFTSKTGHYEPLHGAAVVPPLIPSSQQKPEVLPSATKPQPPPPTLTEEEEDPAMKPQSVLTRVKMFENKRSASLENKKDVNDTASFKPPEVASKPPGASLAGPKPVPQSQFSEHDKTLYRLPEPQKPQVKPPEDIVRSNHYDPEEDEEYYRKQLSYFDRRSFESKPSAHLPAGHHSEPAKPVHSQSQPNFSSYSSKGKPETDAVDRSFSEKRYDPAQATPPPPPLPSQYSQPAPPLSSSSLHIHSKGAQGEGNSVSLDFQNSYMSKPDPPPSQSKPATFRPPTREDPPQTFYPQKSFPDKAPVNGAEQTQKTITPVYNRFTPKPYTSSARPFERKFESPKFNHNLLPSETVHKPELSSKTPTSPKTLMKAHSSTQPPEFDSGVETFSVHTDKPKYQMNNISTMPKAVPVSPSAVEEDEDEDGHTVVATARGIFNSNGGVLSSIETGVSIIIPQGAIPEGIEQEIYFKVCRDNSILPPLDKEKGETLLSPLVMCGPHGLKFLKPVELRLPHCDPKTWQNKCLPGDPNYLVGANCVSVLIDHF
UniProt Q9QZQ1: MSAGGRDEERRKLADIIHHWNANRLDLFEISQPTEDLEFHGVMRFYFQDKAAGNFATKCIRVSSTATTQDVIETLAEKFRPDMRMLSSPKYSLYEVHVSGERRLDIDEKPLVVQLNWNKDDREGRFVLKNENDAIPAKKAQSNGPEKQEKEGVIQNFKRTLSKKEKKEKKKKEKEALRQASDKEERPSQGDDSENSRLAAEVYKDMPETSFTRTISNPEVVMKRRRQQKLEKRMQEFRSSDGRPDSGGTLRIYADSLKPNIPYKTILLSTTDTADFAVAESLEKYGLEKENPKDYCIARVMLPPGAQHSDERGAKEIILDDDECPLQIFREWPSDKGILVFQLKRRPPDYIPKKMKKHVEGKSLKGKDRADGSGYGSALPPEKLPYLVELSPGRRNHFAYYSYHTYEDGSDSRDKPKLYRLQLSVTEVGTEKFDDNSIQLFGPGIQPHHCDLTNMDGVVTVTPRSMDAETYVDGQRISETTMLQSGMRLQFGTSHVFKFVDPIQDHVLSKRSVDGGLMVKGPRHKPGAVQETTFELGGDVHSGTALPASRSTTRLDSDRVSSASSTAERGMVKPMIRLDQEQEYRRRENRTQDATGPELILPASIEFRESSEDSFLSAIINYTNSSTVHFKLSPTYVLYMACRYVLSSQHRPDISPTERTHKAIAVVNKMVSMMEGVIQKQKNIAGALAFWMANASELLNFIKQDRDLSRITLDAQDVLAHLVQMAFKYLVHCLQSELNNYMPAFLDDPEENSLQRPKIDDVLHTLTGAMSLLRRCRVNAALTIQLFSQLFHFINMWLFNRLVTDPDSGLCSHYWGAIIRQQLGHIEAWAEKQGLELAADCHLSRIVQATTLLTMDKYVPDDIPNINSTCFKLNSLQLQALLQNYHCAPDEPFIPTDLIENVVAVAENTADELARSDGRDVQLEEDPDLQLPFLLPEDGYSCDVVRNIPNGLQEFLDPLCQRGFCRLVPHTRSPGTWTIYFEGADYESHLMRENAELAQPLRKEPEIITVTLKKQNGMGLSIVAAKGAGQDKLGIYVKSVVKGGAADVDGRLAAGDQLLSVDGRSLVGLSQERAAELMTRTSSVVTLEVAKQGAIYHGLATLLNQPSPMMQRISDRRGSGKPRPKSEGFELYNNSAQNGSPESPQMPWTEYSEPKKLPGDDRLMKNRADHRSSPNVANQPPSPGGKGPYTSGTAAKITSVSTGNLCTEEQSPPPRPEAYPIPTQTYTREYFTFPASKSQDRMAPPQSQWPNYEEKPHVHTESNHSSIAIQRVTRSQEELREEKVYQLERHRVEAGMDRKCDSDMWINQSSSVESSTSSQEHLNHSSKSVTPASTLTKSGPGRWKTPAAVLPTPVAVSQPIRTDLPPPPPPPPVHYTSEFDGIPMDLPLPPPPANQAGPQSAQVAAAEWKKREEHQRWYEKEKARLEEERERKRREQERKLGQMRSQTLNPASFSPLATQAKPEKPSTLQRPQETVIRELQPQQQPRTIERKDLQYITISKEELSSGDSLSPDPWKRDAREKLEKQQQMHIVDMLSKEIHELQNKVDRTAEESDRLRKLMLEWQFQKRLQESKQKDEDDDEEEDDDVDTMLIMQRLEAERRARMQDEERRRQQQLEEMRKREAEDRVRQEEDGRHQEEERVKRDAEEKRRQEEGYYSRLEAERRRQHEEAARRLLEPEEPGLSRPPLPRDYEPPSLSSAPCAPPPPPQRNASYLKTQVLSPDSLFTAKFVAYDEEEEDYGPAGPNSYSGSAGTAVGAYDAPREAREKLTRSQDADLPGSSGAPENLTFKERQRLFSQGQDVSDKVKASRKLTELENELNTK

ZO-1 = ZO-1 (UniProt P39447); experiment: co-IP; FLAG immunoprecipitation in a heterologous expression system; anti-DYKDDDDK mAb beads 2 h; 20 mM Tris-HCl pH 7.5, 150 mM NaCl, 1% Triton X-100; blots with anti-FLAG, anti-HA, anti-GFP
ZO-2 = biological target: T2, ZO-2 (UniProt Q9Z0U1); experiment: as above
T2 sequence: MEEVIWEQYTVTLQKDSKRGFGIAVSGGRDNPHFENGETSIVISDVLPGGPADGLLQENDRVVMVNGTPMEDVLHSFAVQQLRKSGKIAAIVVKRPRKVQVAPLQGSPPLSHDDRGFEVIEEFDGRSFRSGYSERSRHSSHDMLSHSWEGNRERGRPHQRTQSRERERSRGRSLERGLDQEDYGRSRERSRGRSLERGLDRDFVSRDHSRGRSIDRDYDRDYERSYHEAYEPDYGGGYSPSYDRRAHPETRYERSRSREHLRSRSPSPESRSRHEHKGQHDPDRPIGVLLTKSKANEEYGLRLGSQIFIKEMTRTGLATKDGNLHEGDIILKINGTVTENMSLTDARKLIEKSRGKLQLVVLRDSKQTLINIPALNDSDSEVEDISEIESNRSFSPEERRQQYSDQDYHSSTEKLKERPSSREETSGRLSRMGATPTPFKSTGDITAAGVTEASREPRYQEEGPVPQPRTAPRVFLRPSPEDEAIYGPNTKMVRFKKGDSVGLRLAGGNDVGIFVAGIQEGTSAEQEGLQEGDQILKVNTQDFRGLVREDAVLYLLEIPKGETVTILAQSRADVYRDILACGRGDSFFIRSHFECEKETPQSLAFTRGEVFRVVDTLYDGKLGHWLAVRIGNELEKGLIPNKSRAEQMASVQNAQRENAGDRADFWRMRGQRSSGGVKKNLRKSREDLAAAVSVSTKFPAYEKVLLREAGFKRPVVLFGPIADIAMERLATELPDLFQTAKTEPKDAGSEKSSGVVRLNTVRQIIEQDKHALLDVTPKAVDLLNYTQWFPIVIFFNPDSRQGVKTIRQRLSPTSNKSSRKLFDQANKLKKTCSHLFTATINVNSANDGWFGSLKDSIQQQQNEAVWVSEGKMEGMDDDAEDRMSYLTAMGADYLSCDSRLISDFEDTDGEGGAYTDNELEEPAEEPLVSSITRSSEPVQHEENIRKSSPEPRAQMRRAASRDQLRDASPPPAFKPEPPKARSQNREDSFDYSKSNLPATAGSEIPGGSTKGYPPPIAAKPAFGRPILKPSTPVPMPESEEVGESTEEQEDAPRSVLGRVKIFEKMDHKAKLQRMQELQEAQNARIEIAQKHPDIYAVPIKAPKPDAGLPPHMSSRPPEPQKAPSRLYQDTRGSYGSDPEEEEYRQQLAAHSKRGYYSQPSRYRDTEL

afadin = afadin (UniProt Q9QZQ1); experiment: as above

binding [1]: binds weakly | binding (ZO-1): binds | binding (ZO-2): binds | binding (afadin): binds
B1: MAGI-3 (natural protein, UniProt Q9EQJ9 1-1476, looked up)
chain: MSKTLKKKKHWLSKVQECAVSWAGPPGDLGAEIRGGAERGEFPYLGRLRDEAGGGGGTCCVVSGKAPSPGDVLLEVNGTPVSGLTNRDTLAVIRHFREPIRLKTVKPGKVINKDLRHYLSLQFQKGSIDHKLQQVIRDNLYLRTIPCTTRAPRDGEVPGVDYNFISVEQFKALEESGALLESGTYDGNFYGTPKPPAEPSPFQPDPVDQVLFDNEFDTESQRKRTTSVSKMERMDSSLPEEEEDEDKEAVNGSGSMETREMHSETSDCWMKTVPSYNQTNSSMDFRNYMMRDENLEPLPKNWEMAYTDTGMIYFIDHNTKTTTWLDPRLCKKAKAPEDCEDGELPYGWEKIEDPQYGTYYVDHLNQKTQFENPVEEAKRKKQLGQAEIHSAKTDVERAHFTRDPSQLKGVLVRASLKKSTMGFGFTIIGGDRPDEFLQVKNVLKDGPAAQDGKIAPGDVIVDINGNCVLGHTHADVVQMFQLVPVNQYVNLTLCRGYPLPDDSEDPVVDIVAATPVINGQSLTKGETCMNTQDFKLGAMVLDQNGKSGQILASDRLNGPSESSEQRASLASSGSSQPELVTIPLIKGPKGFGFAIADSPTGQKVKMILDSQWCQGLQKGDIIKEIYHQNVQNLTHLQVVEVLKQFPVGADVPLLILRGGPCSPTKTAKTKTDTKENSGSLETINEPIPQPMPFPPSIIRSGSPKLDPSEVYLKSKTLYEDKPPNTKDLDVFLRKQESGFGFRVLGGDGPDQSIYIGAIIPLGAAEKDGRLRAADELMCIDGIPVKGKSHKQVLDLMTTAARNGHVLLTVRRKIFYGEKQPEDESHQAFSQNGSPRLNRAELPTRSAPQEAYDVTLQRKENEGFGFVILTSKSKPPPGVIPHKIGRVIDGSPADRCGGLKVGDHISAVNGQSIVDLSHDNIVQLIKDAGVTVTLTVVAEEEHHGPPSGTNSARQSPALQHRPMGQAQANHIPGDRIALEGEIGRDVCSSYRHSWSDHKHLAQPDTAVISVVGSRHNQSLGCYPVELERGPRGFGFSLRGGKEYNMGLFILRLAEDGPAIKDGRIHVGDQIVEINGEPTQGITHTRAIELIQAGGNKVLLLLRPGTGLIPDHGDWDTNSPSSSNVIYDEQPPPLPSSHSASTFEESHVPATEDSLTRVQICEKAEELKDTVQEKKSTLNGSQPEMKYQSVHKTMSKKDPPRGSGHGEKSRLKGENGVTRRGRSASPKKSVNRHSEEHLEKIPRPLKSDPKEKSRDRSLSPRKGESKGRLTIKAGSGQDPYRKDRGRSSSPKKQQKIGGNSLSNTEGKLSEAGSRRAAGHPRDSTEQLPDGREKSGVSRKDLKQSQPGKTRTKSPEKKSSKVDETSLPSKKTSSTAGRVVSEKEKGKKPTAGETSRETVEHTQISAKQLKQEAQEKTALGNADDHKGRESEVTDRCRERAGCTPQSSSLVKKAPITPGPWRVPRANKVTGTTGMADKQL
notes: MAGI-3, expressed in a heterologous expression system for FLAG immunoprecipitation; HEK293 is probably the host; also called HA-MAGI-3; MAGI proteins; source: heterologous expression system, in lysate

Reference: article PMC7954791, “MAGIs regulate aPKC to enable balanced distribution of intercellular tension for epithelial sheet homeostasis” (Communications Biology, 2021)
